Here are results for one substance from PMC11793977.

Sequences of proteins named here, by UniProt entry; tags and fusion partners are left off.
UniProt P62879: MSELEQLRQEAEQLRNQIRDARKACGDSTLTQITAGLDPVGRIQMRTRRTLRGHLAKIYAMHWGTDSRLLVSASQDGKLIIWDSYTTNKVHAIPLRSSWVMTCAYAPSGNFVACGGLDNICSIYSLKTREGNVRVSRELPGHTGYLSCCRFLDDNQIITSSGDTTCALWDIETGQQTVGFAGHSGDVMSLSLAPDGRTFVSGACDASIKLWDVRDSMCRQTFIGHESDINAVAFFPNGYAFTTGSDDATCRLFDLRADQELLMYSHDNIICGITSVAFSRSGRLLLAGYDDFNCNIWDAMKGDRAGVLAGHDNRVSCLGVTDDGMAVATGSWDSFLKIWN
UniProt O14610: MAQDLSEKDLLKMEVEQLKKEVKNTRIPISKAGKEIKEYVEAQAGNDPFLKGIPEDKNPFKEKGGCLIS

The assay addresses Venus (155–209)-β2 (UniProt P62879). Kind of assay: split reporter; Venus complementation in living HeLa cells also expressing OptoGDI and Lyn-CIBN; 515 nm excitation, 542 nm emission.

These are yes or no findings as the source states them, for the method shown. Binding seen in cells or lysates may run through a third protein. Some entries that bind do so weakly or less than the wild type.

In the case of “Venus (1–155)-γ9 (from UniProt O14610 1-69)”, the binding result is listed as “binds”.
